These are yes or no findings as the source states them, for the method shown. In cells and extracts the contact can be indirect. Here binding means that the protein was enriched with, or labelled near, the bait; the list need not be complete. Sequences can lack the tags named with a protein.

Chains of the proteins cited; added tags and fusions are not shown.
UniProt Q5T5P2: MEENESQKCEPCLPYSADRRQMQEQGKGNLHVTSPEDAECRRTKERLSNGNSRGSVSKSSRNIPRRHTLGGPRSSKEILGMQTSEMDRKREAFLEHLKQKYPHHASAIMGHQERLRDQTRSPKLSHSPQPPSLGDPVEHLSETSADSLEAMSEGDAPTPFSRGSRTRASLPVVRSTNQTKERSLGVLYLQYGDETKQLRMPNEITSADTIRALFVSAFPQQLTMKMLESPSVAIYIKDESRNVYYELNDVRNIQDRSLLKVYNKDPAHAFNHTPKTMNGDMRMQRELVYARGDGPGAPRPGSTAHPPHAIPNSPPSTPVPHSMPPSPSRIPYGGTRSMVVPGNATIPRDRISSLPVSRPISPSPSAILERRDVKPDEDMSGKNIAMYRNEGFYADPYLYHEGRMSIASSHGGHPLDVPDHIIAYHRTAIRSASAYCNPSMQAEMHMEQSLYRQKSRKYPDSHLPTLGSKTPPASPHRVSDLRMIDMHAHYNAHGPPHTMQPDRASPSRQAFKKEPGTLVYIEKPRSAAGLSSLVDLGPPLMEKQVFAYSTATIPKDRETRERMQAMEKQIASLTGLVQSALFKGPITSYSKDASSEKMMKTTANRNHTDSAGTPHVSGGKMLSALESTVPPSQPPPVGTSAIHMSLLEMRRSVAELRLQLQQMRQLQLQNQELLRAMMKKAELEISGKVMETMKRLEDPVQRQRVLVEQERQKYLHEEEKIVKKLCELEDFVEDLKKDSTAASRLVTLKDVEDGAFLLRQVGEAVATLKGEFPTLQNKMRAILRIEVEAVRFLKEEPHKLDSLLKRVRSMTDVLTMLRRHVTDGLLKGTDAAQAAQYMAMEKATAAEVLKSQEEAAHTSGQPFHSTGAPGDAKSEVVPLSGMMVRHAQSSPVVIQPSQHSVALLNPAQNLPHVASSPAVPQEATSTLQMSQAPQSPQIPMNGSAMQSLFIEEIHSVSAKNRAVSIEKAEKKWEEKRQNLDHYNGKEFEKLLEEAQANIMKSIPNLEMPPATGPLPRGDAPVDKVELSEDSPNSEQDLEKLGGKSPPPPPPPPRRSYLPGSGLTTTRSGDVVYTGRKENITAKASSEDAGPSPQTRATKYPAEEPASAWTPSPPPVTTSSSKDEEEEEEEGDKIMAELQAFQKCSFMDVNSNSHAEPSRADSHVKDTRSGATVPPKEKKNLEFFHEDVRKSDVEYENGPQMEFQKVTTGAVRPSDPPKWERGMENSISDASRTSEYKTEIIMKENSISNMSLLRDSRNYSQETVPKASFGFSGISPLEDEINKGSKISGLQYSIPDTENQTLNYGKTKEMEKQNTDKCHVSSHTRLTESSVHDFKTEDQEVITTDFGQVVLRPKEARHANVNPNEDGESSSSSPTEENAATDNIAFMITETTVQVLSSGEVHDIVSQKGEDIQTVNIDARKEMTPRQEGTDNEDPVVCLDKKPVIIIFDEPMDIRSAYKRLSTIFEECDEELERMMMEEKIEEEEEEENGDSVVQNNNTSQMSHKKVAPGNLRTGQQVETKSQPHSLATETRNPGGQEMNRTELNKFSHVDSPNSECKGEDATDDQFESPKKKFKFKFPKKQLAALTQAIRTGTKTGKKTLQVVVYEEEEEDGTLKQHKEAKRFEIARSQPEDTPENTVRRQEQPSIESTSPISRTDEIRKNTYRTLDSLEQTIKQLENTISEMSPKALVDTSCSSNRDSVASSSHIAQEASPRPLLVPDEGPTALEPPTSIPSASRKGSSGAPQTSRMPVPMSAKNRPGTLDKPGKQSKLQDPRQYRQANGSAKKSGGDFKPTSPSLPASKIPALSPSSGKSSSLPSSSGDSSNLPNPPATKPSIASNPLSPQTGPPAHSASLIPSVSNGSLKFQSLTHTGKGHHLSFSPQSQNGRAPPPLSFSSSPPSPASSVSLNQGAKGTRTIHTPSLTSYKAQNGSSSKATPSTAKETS
UniProt O14818: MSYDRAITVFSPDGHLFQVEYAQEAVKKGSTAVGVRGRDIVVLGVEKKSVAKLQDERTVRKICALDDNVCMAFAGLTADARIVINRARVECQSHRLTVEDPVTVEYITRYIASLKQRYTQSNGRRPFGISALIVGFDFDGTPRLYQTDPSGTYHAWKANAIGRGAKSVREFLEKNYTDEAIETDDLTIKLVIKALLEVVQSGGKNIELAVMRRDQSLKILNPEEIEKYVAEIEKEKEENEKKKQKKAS
UniProt O95757: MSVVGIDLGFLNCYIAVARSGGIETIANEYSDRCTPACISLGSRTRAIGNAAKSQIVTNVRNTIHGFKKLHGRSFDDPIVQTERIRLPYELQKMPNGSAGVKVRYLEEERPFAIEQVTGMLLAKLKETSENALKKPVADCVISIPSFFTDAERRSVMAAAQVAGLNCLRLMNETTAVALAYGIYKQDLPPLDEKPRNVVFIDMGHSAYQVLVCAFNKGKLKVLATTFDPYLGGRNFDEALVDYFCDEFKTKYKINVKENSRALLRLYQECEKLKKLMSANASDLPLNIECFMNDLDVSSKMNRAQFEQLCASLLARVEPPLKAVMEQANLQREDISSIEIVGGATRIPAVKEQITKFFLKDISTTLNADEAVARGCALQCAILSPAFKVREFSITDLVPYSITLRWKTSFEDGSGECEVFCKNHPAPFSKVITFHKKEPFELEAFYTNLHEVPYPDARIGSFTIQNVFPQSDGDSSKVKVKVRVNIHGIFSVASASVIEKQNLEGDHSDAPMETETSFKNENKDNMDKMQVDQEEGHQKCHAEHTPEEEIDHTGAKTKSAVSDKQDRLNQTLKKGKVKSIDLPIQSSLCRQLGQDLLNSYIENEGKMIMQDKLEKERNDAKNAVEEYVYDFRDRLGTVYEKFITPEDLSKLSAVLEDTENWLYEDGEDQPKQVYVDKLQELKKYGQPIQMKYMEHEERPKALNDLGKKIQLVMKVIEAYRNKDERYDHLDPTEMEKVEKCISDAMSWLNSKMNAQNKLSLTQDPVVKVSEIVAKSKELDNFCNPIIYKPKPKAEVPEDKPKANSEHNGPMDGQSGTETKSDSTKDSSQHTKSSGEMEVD
UniProt P34932: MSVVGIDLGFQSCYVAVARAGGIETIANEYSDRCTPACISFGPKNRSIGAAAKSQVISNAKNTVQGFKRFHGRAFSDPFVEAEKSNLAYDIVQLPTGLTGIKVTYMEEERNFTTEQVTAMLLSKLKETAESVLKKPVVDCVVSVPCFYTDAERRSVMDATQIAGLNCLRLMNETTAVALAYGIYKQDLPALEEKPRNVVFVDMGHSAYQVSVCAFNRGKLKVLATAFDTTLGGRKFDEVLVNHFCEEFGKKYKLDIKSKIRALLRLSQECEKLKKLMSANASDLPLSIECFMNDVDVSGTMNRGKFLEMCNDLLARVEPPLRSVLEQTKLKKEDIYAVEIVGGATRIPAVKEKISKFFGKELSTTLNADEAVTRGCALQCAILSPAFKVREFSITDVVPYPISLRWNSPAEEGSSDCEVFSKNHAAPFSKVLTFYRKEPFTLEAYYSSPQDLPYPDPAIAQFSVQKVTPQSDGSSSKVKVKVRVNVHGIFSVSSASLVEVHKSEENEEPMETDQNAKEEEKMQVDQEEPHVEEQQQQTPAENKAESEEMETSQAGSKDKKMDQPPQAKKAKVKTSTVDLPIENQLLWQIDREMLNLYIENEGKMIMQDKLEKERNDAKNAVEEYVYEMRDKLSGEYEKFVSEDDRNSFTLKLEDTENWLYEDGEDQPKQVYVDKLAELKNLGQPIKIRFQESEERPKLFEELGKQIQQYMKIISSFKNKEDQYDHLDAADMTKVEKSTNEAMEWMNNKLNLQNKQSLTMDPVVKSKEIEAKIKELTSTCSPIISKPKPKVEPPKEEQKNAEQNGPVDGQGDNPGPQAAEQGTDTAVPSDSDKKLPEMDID
UniProt P35998: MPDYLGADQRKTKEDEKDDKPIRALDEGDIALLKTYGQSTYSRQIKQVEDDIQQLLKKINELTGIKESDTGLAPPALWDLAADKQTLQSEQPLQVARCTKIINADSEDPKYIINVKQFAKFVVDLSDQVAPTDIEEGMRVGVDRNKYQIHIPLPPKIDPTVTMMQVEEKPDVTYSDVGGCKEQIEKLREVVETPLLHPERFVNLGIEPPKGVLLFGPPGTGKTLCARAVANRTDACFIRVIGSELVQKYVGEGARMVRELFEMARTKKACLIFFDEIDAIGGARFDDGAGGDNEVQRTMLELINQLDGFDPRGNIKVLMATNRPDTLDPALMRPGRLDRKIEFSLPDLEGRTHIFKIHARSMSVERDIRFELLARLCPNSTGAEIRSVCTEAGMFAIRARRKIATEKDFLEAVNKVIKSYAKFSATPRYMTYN
UniProt O00629: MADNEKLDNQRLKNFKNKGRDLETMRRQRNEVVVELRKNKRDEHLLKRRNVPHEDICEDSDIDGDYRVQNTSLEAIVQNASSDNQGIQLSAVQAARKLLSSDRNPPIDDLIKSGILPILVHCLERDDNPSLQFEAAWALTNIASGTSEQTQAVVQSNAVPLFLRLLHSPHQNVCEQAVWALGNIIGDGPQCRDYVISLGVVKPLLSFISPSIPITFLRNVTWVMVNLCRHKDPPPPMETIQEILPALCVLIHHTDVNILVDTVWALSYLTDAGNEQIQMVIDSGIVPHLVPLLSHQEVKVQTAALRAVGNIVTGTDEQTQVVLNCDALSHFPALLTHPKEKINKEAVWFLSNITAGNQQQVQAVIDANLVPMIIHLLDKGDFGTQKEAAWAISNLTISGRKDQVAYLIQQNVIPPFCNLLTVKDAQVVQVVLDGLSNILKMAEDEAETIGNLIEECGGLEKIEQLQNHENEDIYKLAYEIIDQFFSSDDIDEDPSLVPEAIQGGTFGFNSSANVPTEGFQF
UniProt P51784: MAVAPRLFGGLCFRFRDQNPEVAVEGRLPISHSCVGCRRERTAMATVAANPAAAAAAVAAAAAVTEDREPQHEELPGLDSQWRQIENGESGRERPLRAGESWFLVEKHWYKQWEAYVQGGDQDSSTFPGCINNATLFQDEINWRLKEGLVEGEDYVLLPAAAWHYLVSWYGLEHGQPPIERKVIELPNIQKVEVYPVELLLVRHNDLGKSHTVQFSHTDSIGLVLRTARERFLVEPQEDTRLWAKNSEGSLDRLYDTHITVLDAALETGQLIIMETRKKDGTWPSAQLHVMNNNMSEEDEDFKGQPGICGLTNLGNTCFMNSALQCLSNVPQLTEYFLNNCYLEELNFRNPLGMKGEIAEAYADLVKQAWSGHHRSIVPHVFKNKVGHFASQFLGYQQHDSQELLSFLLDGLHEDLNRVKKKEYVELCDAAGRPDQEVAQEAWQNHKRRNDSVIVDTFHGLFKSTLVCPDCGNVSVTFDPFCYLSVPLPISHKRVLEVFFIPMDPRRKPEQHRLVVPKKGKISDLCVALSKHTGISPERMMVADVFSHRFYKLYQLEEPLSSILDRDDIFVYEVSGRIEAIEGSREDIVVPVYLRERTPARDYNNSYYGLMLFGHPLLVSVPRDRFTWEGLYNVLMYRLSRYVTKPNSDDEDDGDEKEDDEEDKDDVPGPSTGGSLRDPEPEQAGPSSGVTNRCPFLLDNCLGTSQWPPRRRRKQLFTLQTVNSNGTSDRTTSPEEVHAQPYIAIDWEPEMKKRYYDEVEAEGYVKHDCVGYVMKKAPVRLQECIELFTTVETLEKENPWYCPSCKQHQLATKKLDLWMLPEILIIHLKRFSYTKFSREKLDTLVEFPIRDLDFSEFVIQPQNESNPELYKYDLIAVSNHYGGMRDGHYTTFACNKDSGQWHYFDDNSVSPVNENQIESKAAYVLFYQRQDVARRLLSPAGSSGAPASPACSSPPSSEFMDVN
UniProt P25787: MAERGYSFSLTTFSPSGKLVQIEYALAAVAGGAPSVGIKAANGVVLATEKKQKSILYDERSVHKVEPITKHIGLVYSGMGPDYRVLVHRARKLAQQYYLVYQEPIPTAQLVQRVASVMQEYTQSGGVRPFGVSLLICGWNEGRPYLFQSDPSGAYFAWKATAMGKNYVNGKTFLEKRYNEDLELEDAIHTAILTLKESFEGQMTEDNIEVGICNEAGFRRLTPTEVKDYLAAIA
UniProt P25786: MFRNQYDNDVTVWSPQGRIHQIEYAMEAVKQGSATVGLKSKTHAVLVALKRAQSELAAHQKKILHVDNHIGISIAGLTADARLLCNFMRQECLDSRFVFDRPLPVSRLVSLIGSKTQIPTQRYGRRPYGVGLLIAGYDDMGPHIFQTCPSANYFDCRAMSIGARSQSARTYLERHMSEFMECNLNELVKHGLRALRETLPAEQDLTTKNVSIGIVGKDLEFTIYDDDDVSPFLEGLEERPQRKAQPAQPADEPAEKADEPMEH
UniProt Q9BUT1: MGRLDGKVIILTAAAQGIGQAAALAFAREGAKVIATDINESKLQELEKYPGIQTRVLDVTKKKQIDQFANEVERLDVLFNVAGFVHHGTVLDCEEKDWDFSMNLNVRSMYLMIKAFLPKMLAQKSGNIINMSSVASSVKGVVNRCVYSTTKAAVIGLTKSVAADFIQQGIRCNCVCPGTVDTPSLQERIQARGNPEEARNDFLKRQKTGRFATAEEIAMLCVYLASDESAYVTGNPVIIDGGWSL

Our source for the binding values is PMC8699236.

The target of assay [1] is T1, TRIB1 GFP-fusion protein (human) (UniProt Q96RU8).
T1 sequence: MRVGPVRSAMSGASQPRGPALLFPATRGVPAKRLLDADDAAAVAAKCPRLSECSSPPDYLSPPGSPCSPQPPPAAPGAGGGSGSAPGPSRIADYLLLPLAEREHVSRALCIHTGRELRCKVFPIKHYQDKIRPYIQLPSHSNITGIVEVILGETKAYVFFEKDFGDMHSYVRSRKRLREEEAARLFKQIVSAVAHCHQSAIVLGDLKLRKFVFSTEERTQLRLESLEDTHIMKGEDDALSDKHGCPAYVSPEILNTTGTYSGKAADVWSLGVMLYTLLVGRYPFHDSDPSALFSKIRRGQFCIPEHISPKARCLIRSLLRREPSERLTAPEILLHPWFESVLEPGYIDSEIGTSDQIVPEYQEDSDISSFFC
In words: affinity purification with mass spectrometry; GFP-fusion bait from lysate of transfected HEK293T cells on GFP-Trap beads, 2 h at 4 °C; lysis buffer 50 mM Tris pH 8.0, 1 mM EDTA, 0.1% NP40, 250 mM NaCl, 10% glycerol; on-bead digestion, LC-MS, label-free, against GFP control (or mutant against mutant or wild type).

Assay [2] concerns the target T2, TRIB2 GFP-fusion protein (human) (UniProt Q92519).
T2 sequence: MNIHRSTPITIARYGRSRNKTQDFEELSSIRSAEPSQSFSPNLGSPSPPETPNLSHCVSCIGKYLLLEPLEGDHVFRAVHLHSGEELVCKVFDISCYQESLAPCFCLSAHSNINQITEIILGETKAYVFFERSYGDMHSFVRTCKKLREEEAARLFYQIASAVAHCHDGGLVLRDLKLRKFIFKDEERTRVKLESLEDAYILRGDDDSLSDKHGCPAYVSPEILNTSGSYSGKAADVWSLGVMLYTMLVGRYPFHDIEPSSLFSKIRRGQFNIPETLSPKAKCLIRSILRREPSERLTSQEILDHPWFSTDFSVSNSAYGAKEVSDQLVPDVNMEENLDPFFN
The description is as above.

On to “Proteosome 26S subunit ATPase 6 (from UniProt P62333 1-389)”, for which, in assay [1], the binding entry is “binds”.

On to “Heat Shock Protein Family H Member 1 (from UniProt Q92598 1-858)”, for which the binding entry in assay [1] is listed as “binds”.

For “Sickle tail Protein Homolog (from UniProt Q5T5P2 1-1943)”, in assay [2], the binding result is on record as “binds”.

Take “Proteosome 20S subunit Alpha 7 (from UniProt O14818 1-248)”: the binding entry in assay [1] is listed as “binds”.

Regarding “Heat Shock Protein Family A Member 4 Like (from UniProt O95757 1-839)”, the binding result in assay [1] is listed as “binds”.

With “Heat Shock Protein A Member 4 (from UniProt P34932 1-840)”, the binding entry in assay [1] is “binds”.

Consider “Zinc Finger with KRAB and SCAN Domains 1 (from UniProt P17029 1-563)”, for which, in assay [2], the binding entry was “binds”.

As to “Proteosome 26S subunit ATPase 2 (from UniProt P35998 1-433)”, in assay [1], the binding entry is listed as “binds”.

Regarding “Karyopherin Subunit Alpha 4 (from UniProt O00629 1-521)”, the binding result in assay [1] was “binds”.

For the molecule “Proteosome 20S subunit Beta 2 (from UniProt P49721 1-201)”, in assay [1], the binding entry is “binds”.

Turning to “STIP1 Homology and U-Box Containing Protein 1 (from UniProt Q9UNE7 1-303)”, the binding entry in assay [1] was “binds”.

As for “Ubiquitin Specific Peptidase 11 (from UniProt P51784 1-963)”, the binding result in assay [2] is reported as “binds”.

“Proteosome 20S subunit Alpha 2 (from UniProt P25787 1-234)”: the binding entry in assay [1] is “binds”.

On to “26S Proteosome Ubiquitin Receptor (from UniProt Q16186 1-407)”, for which the binding result in assay [1] is “binds”.

For the molecule “Apoptosis inducing Factor Mitochondrial Associated 1 (from UniProt O95831)”, the binding result in assay [2] was “binds”.

For the molecule “Regulatory Associated Protein of MTOR Complex 1 (from UniProt Q8N122 1-1335)”, the binding entry in assay [2] is reported as “binds”.

As for “protein kinase AKT/PKB (human (endogenous in HEK293T and MCF7))”, the binding result in assay [1] is “binds”.

“Proteosome 20S subunit Alpha 1 (from UniProt P25786 1-263)”: the binding result in assay [1] was “binds”.

In the case of “3-Hydroxybutyrate Dehtdrogenase 2 (from UniProt Q9BUT1 1-245)”, the binding entry in assay [2] is given as “binds”.

“Karyopherin Subunit Alpha 3 (from UniProt O00505 1-521)”: the binding entry in assay [1] is “binds”.

In the case of “Proteasome 26S Subunit Ubiquitin receptor 4 (from UniProt P55036 1-377)”, the binding entry in assay [1] is reported as “binds”.

Regarding “Proteosome 20S subunit Alpha 5 (from UniProt P28066 1-241)”, the binding result in assay [1] was “binds”.

B1: Protein Phosphatase Mg2+ Dependent 1G (protein, UniProt O15355 1-546)
chain: MGAYLSQPNTVKCSGDGVGAPRLPLPYGFSAMQGWRVSMEDAHNCIPELDSETAMFSVYDGHGGEEVALYCAKYLPDIIKDQKAYKEGKLQKALEDAFLAIDAKLTTEEVIKELAQIAGRPTEDEDEKEKVADEDDVDNEEAALLHEEATMTIEELLTRYGQNCHKGPPHSKSGGGTGEEPGSQGLNGEAGPEDSTRETPSQENGPTAKAYTGFSSNSERGTEAGQVGEPGIPTGEAGPSCSSASDKLPRVAKSKFFEDSEDESDEAEEEEEDSEECSEEEDGYSSEEAENEEDEDDTEEAEEDDEEEEEEMMVPGMEGKEEPGSDSGTTAVVALIRGKQLIVANAGDSRCVVSEAGKALDMSYDHKPEDEVELARIKNAGGKVTMDGRVNGGLNLSRAIGDHFYKRNKNLPPEEQMISALPDIKVLTLTDDHEFMVIACDGIWNVMSSQEVVDFIQSKISQRDENGELRLLSSIVEELLDQCLAPDTSGDGTGCDNMTCIIICFKPRNTAELQPESGKRKLEEVLSTEGAEENGNSDKKKKAKRD
For B1, the binding result in assay [1] is given as “binds”.

B2: DnaJ Heat Shock Protein Family Member C10 (protein, UniProt Q8IXB1 33-793)
chain: DQDFYSLLGVSKTASSREIRQAFKKLALKLHPDKNPNNPNAHGDFLKINRAYEVLKDEDLRKKYDKYGEKGLEDNQGGQYESWNYYRYDFGIYDDDPEIITLERREFDAAVNSGELWFVNFYSPGCSHCHDLAPTWRDFAKEVDGLLRIGAVNCGDDRMLCRMKGVNSYPSLFIFRSGMAPVKYHGDRSKESLVSFAMQHVRSTVTELWTGNFVNSIQTAFAAGIGWLITFCSKGGDCLTSQTRLRLSGMLDGLVNVGWMDCATQDNLCKSLDITTSTTAYFPPGATLNNKEKNSILFLNSLDAKEIYLEVIHNLPDFELLSANTLEDRLAHHRWLLFFHFGKNENSNDPELKKLKTLLKNDHIQVGRFDCSSAPDICSNLYVFQPSLAVFKGQGTKEYEIHHGKKILYDILAFAKESVNSHVTTLGPQNFPANDKEPWLVDFFAPWCPPCRALLPELRRASNLLYGQLKFGTLDCTVHEGLCNMYNIQAYPTTVVFNQSNIHEYEGHHSAEQILEFIEDLMNPSVVSLTPTTFNELVTQRKHNEVWMVDFYSPWCHPCQVLMPEWKRMARTLTGLINVGSIDCQQYHSFCAQENVQRYPEIRFFPPKSNKAYHYHSYNGWNRDAYSLRIWGLGFLPQVSTDLTPQTFSEKVLQGKNHWVIDFYAPWCGPCQNFAPEFELLARMIKGKVKAGKVDCQAYAQTCQKAGIRAYPTVKFYFYERAKRNFQEEQINTRDAKAIAALISEKLETLRNQGKRNKDEL
Regarding B2, in assay [1], the binding entry was “binds”.

B3: WD Repeat Domain 37 (protein, UniProt Q9Y2I8 1-494)
chain: MPTESASCSTARQTKQKRKSHSLSIRRTNSSEQERTGLPRDMLEGQDSKLPSSVRSTLLELFGQIEREFENLYIENLELRREIDTLNERLAAEGQAIDGAELSKGQLKTKASHSTSQLSQKLKTTYKASTSKIVSSFKTTTSRAACQLVKEYIGHRDGIWDVSVAKTQPVVLGTASADHTALLWSIETGKCLVKYAGHVGSVNSIKFHPSEQLALTASGDQTAHIWRYAVQLPTPQPVADTSISGEDEVECSDKDEPDLDGDVSSDCPTIRVPLTSLKSHQGVVIASDWLVGGKQAVTASWDRTANLYDVETSELVHSLTGHDQELTHCCTHPTQRLVVTSSRDTTFRLWDFRDPSIHSVNVFQGHTDTVTSAVFTVGDNVVSGSDDRTVKVWDLKNMRSPIATIRTDSAINRINVCVGQKIIALPHDNRQVRLFDMSGVRLARLPRSSRQGHRRMVCCSAWSEDHPVCNLFTCGFDRQAIGWNINIPALLQEK
For B3, the binding result in assay [2] is recorded as “binds”.

B4: BTB/POZ Domain-Containing Protein KCTD21 (protein, UniProt Q4G0X4 1-260)
chain: MSDPITLNVGGKLYTTSLATLTSFPDSMLGAMFSGKMPTKRDSQGNCFIDRDGKVFRYILNFLRTSHLDLPEDFQEMGLLRREADFYQVQPLIEALQEKEVELSKAEKNAMLNITLNQRVQTVHFTVREAPQIYSLSSSSMEVFNANIFSTSCLFLKLLGSKLFYCSNGNLSSITSHLQDPNHLTLDWVANVEGLPEEEYTKQNLKRLWVVPANKQINSFQVFVEEVLKIALSDGFCIDSSHPHALDFMNNKIIRLIRYR
Consider B4, for which the binding entry in assay [2] is “binds”.

B5: IRON-Sulfur Cluster Assembly 1 (protein, UniProt Q9BUE6 13-129)
chain: VSKRKLQPTRAALTLTPSAVNKIKQLLKDKPEHVGVKVGVRTRGCNGLSYTLEYTKTKGDSDEEVIQDGVRVFIEKKAQLTLLGTEMDYVEDKLSSEFVFNNPNIKGTCGCGESFNI
In the case of B5, the binding entry in assay [2] is listed as “binds”.

B6: Ferrochelatase (protein, UniProt P22830 55-423)
chain: GAKPQVQPQKRKPKTGILMLNMGGPETLGDVHDFLLRLFLDRDLMTLPIQNKLAPFIAKRRTPKIQEQYRRIGGGSPIKIWTSKQGEGMVKLLDELSPNTAPHKYYIGFRYVHPLTEEAIEEMERDGLERAIAFTQYPQYSCSTTGSSLNAIYRYYNQVGRKPTMKWSTIDRWPTHHLLIQCFADHILKELDHFPLEKRSEVVILFSAHSLPMSVVNRGDPYPQEVSATVQKVMERLEYCNPYRLVWQSKVGPMPWLGPQTDESIKGLCERGRKNILLVPIAFTSDHIETLYELDIEYSQVLAKECGVENIRRAESLNGNPLFSKALADLVHSHIQSNELCSKQLTLSCPLCVNPVCRETKSFFTSQQL
As for B6, in assay [2], the binding entry was “binds”.

B7: CDC42 Effector Protein 1 (protein, UniProt Q00587 1-391)
chain: MPGPQGGRGAATMSLGKLSPVGWVSSSQGKRRLTADMISHPLGDFRHTMHVGRGGDVFGDTSFLSNHGGSSGSTHRSPRSFLAKKLQLVRRVGAPPRRMASPPAPSPAPPAISPIIKNAISLPQLNQAAYDSLVVGKLSFDSSPTSSTDGHSSYGLDSGFCTISRLPRSEKPHDRDRDGSFPSEPGLRRSDSLLSFRLDLDLGPSLLSELLGVMSLPEAPAAETPAPAANPPAPTANPTGPAANPPATTANPPAPAANPSAPAATPTGPAANPPAPAASSTPHGHCPNGVTAGLGPVAEVKSSPVGGGPRGPAGPALGRHWGAGWDGGHHYPEMDARQERVEVLPQARASWESLDEEWRAPQAGSRTPVPSTVQANTFEFADAEEDDEVKV
With B7, the binding result in assay [2] was “binds”.
